Measurements: PMC8502442 (Pharmacology Research & Perspectives, 2021)

Assays:
[1] = rat; cited from earlier work
[2] = Rat pharmacokinetics following an IV single bolus; assay type: in vivo; details: plasma, 1 mg/kg

SMILES	hepatic CL [1]	renal CL [1]	reported plasma CL [1]	clearance [2]
CC(C)NCC(O)COc1ccc(CC(N)=O)cc1 (centres unmarked) [Atenolol, atenolol]	about 14 ml/min/kg	~13 mL/min/kg	26.0 mL/min/kg	
CN(C)CCOC(c1ccccc1)c1ccccc1 [Diphenhydramine, diphenhydramine]			115 mL/min/kg	152 ± 11 mL/min/kg
